Results published in the supplement of paper PMC9233669.
This sample is rich in variants without activity.

What was measured:
[1] = tested on: biotinyl-Val-oxazolone; assay: self-aminoacylation, catalytic enhancement (BVO) (fold over background); higher = more active; k-Seq, kA / k0A0; sequences stand for … in GGGAAUGGAUCCACAUCUACGAAUUC…UUCACUGCAGACUUGACGAAGCUG
Summary of the method: (§1)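 Each biotinyl-aminoacyl-oxazolone, at 2–1250 μM, was incubated with mutagenized RNA pools (0.43 μM) carrying a 21-nt variable region. The 50 μL reactions contained HEPES/NaCl/KCl/MgCl2/CaCl2 buffer with 5% acetonitrile at pH 6.9–7.0 and ran for 90 minutes at room temperature. After streptavidin capture, RNA was measured by qPCR in triplicate and by Illumina sequencing, and catalytic enhancement was calculated as median kA over the uncatalyzed rate from a pseudo-first-order fit of per-sequence fraction reacted.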

[2] = tested on: biotinyl-Phe-oxazolone; assay: self-aminoacylation, catalytic enhancement (BFO) (fold over background); higher = more active; k-Seq, kA / k0A0; sequences stand for … in GGGAAUGGAUCCACAUCUACGAAUUC…UUCACUGCAGACUUGACGAAGCUG
Summary of the method: as §1

[3] = tested on: biotinyl-Ile-oxazolone; assay: self-aminoacylation, catalytic enhancement (BIO) (fold over background); higher = more active; k-Seq, kA / k0A0; sequences stand for … in GGGAAUGGAUCCACAUCUACGAAUUC…UUCACUGCAGACUUGACGAAGCUG
Summary of the method: as §1

[4] = tested on: biotinyl-Trp-oxazolone; assay: self-aminoacylation, catalytic enhancement (BWO) (fold over background); higher = more active; k-Seq, kA / k0A0; sequences stand for … in GGGAAUGGAUCCACAUCUACGAAUUC…UUCACUGCAGACUUGACGAAGCUG
Summary of the method: as §1

[5] = tested on: biotinyl-Leu-oxazolone; assay: self-aminoacylation, catalytic enhancement (BLO) (fold over background); higher = more active; k-Seq, kA / k0A0; sequences stand for … in GGGAAUGGAUCCACAUCUACGAAUUC…UUCACUGCAGACUUGACGAAGCUG
Summary of the method: as §1

[6] = tested on: biotinyl-Met-oxazolone; assay: self-aminoacylation, catalytic enhancement (BMO) (fold over background); higher = more active; k-Seq, kA / k0A0; sequences stand for … in GGGAAUGGAUCCACAUCUACGAAUUC…UUCACUGCAGACUUGACGAAGCUG
Summary of the method: as §1

Row | Sequence | self-aminoacylation [1] | self-aminoacylation [2] | self-aminoacylation [3] | self-aminoacylation [4] | self-aminoacylation [5] | self-aminoacylation [6]
1 | CUACUUUAAACAAUCCGUCUG [Fam1A.1 aminoacylation ribozyme variant] | 0.784 | 0.57 | 0.82 | 0.636 | 0.737 | 0.812
2 | CUACUUUAAACAAUCGGGCUG [Fam1A.1 aminoacylation ribozyme variant] | 1.06 | 0.648 | 1.2 | 0.746 | 1.07 | 1.25
3 | CUACUUUAAACCAUCGGUCUG [Fam1A.1 aminoacylation ribozyme variant] | 0.878 | 0.815 | 1.02 | 0.987 | 0.877 | 0.935
4 | CUACUUUAAACUAUCGGUCUG [Fam1A.1 aminoacylation ribozyme variant] | 1.04 | 0.744 | 0.996 | 0.945 | 1.02 | 0.959
5 | CUAGUUCAAACAAUCGGACUG [Fam1A.1 aminoacylation ribozyme variant] | 0.761 | 1.68 | 0.906 | 1 | 0.602 | 0.702
6 | CUAUUACAAACAAUCGGUCUG [Fam1A.1 aminoacylation ribozyme variant] | 0.767 | 0.923 | 0.747 | 0.785 | 0.735 | 0.769
7 | CUAUUGCAAACAAUCGGUCUG [Fam1A.1 aminoacylation ribozyme variant] | 0.862 | 0.887 | 0.842 | 0.775 | 0.874 | 0.922
8 | CUAUUUCAAACAAUCGGGCUG [Fam1A.1 aminoacylation ribozyme variant] | 1 | 2.05 | 1.24 | 1.88 | 0.844 | 1.08
9 | CUAUUUCAAACAAUCGGUCAG [Fam1A.1 aminoacylation ribozyme variant] | 0.619 | 1.35 | 0.654 | 0.73 | 0.614 | 0.686
10 | CUAUUUCAAACAAUCGUUCUG [Fam1A.1 aminoacylation ribozyme variant] | 0.637 | 0.744 | 0.621 | 0.469 | 0.587 | 0.601
11 | CUAUUUCAGACAAUCGGUCUG [Fam1A.1 aminoacylation ribozyme variant] | 0.796 | 0.885 | 0.766 | 0.522 | 0.914 | 0.634
12 | CUCCUUCAAACAAUAGGUCUG [Fam1A.1 aminoacylation ribozyme variant] | 0.731 | 1.34 | 0.667 | 0.736 | 0.59 | 0.501
13 | CUCCUUCAAACAAUCGGCCUG [Fam1A.1 aminoacylation ribozyme variant] | 2.15 | 131 | 2.04 | 61.7 | 3.39 | 2.63
14 | CUCCUUCAAACAUUCGGUCUG [Fam1A.1 aminoacylation ribozyme variant] | 1.32 | 3.15 | 1.24 | 1.66 | 1.05 | 1.31
15 | CUCCUUCAAACUAUCGGUCUG [Fam1A.1 aminoacylation ribozyme variant] | 1.15 | 1.92 | 1.14 | 1.5 | 0.895 | 1.17
16 | CUCGUUCAAACAAUCGGUCUG [Fam1A.1 aminoacylation ribozyme variant] | 1.07 | 10.2 | 1.09 | 6.95 | 1.31 | 0.961
17 | CUGCUUCAAACCAUCGGUCUG [Fam1A.1 aminoacylation ribozyme variant] | 0.887 | 0.756 | 0.708 | 0.706 | 0.631 | 0.677
18 | CUUACCCUAGUCAUCGAGUGA [Fam2.1 aminoacylation ribozyme variant] | 3.24 | 5.25 | 2.99 | 6.07 | 5.38 | 4.55
19 | CUUACCCUGGUCAUCGAGUGA [Fam2.1 aminoacylation ribozyme variant] | 11 | 85.8 | 9.83 | 26.1 | 23.1 | 25.3
